Source: patent US12433866B2, “Lasofoxifene treatment of aromatase-resistant ER+ cancer” (Sermonix Pharmaceuticals, Inc., priority 2021, dated 2025)
For some assays here: At least one structure is not confirmed: it was looked up by name or label, or the drawing left a doubt. Some of these results come from one statement about several compounds together.

Experiments:
[1] = test system: MCF7 LTLT (AI-resistant, ER+, cells lacking ESR1 gain-of-function mutations) tumors; experiment: MIND model: luciferase-GFP MCF7 LTLT cells in mammary ducts of NSG mice, live luminescence imaging of primary tumors (total photon flux); format: in vivo; details: in the presence or absence of letrozole
Procedure: Luciferase-GFP tagged LTLT cells were injected into the mammary ducts of NSG mice (MIND model) and tumor progression was monitored by live luminescence imaging of primary tumors, as well as ex vivo imaging and histochemical analysis of metastatic sites at study endpoint. Primary tumor area was also measured at study endpoint.
Cells were grown in RPMI containing 10% FBS and 1 μM letrozole.
Mouse studies were performed in compliance with an approved Institutional Animal Care and Use Committee protocol. NSG (NOD.Cg-Prkdcscid Il2rgtmlWjl/SzJ) mice were purchased from The Jackson Laboratories. Prior to injection, mice were anesthetized via inhalation with 2-3% isoflurane in oxygen. […] Tumor growth in situ was followed via imaging in a Xenogen IVIS 200 instrument in the Integrated Small Animal Imaging Research Resource at the University of Chicago.
Lasofoxifene and vehicle were administered subcutaneously. Palbociclib was administered via oral gavage 5 times/week. […] Mice were also treated with combinations of lasofoxifene+palbociclib, fulvestrant+palbociclib, lasofoxifene+letrozole and palbociclib or fulvestrant+palbociclib, or letrozole.
MCF7 LTLT cells labeled with GFP luciferase were injected into the mammary ducts of NSG mice to establish tumors that represent an AI resistant, non-ESR1-mutated, breast cancer model. […]

MCF7 LTLT primary tumors = experiment: Percent tumor area vs total gland area by H&E of mammary gland sections, MCF7 LTLT MIND model; format: in vivo, NSG mice; details: Let− cohort
Procedure: After cell injection, mice were separated into 2 equal groups; one group received 10 μg/day of letrozole in 15% PEG400 in PBS via subcutaneous injection, “LTLT-Let”; the other group wasn't administered letrozole (“LTLT”). Two to three weeks after cell injections, mice in each group were randomized and treated 5 days/week with lasofoxifene (10 mg/kg, in 100 μl of PBS containing 15% PEG400), palbociclib (70 mg/kg, Med Chem Express #HY-50567, in 50 mM sodium lactate buffer pH4), or vehicle. Lasofoxifene and vehicle were administered subcutaneously. Palbociclib was administered via oral gavage 5 times/week. Fulvestrant (Med Chem Express #HY-13636) (“IC”) (5 mg/mouse) was administered once per week via subcutaneous injection in 100 μl of mineral oil. Mice were also treated with combinations of lasofoxifene+palbociclib, fulvestrant+palbociclib, lasofoxifene+letrozole and palbociclib or fulvestrant+palbociclib, or letrozole.
Harvested tissues were fixed in formalin for IHC and H&E staining. Tissue histology was performed by the Human Tissue Resource Center (HRTC) at the University of Chicago. […]
H&E and IHC slides were scanned on a Nikon eclipse Ti2 microscope with a 10× objective for high resolution images. Ki67 score was determined using standardized manual counting.
H&E slides were scanned on a Nikon microscope and analyzed with the NSI element software.

Oc1ccc2c(c1)CC[C@H](c1ccccc1)[C@@H]2c1ccc(OCCN2CCCC2)cc1 [lasofoxifene]
Photon flux readings, times lower than vehicle [1]: 2-3 times lower than vehicle

CC(=O)c1c(C)c2cnc(Nc3ccc(N4CCNCC4)cn3)nc2n(C2CCCC2)c1=O [palbociclib]
% tumor area of total gland area, H&E (in words) (MCF7 LTLT primary tumors): did not reach statistical significance
